{"source": "patent US8124087B2", "about": "“Methods of controlling bone loss by inhibiting DKK1” (Board of Trustees of the University of Arkansas, priority 2002, dated 2012)", "test_system": "multiple myeloma plasma cells", "experiment": "Gene expression profiling of plasma cells before and after 48 hour in vivo drug treatment", "set-up": "species or system human", "settings": "48 hour in vivo treatment of patients", "text": "Following Ficoll-Hypaque gradient centrifugation, plasma cells obtained from the bone marrow were isolated from the mononuclear cell fraction by immunomagnetic bead selection using a monoclonal mouse anti-human CD138 antibody (Miltenyi-Biotec, Auburn, Calif.). More than 90 percent of the cells used for gene expression profiling were plasma cells, as shown by two-color flow cytometry using CD138^+/CD45^− and CD38^+/ CD45^− markers, the presence of cytoplasmic immunoglobulin light chains by immunocytochemistry, and morphology by Wright-Giemsa staining. Total RNA was isolated with RNeasy Mini Kit (Qiagen, Valencia, Calif.). Preparation of labeled cRNA and hybridization to U95Av2 microarrays containing approximately 10,000 genes (Affymetrix, Santa Clara, Calif.) was performed as previously described (Zhan et al., 2002; Zhan et al., 2003). RNA amplification was not required.\nTo see if multiple myeloma plasma cells also upregulate the genes in response to drugs used to treat this disease, gene expression profiling of multiple myeloma plasma cells was performed before and after 48 hour in vivo treatment with thalidomide (FIG. 33), ImiD (FIG. 34), PS-341 (FIG. 32), or dexamethasone (FIG. 35). […] In support of this notion, […] and FRZB were expressed at low to undetectable levels in 30 HMCL and several cases of extramedullary disease (FIG. 15).", "note": "For at least one compound, name, drawing or mass did not settle the structure.", "data": [{"smiles": "C[C@@H]1C[C@H]2[C@@H]3CCC4=CC(=O)C=C[C@]4(C)[C@@]3(F)[C@@H](O)C[C@]2(C)[C@@]1(O)C(=O)CO", "note": "[dexamethasone]", "values": [{"measurement": "DKK-1 and FRZB expression after drug treatment", "value": "massively upregulated in many cases"}]}]}
